From the supplement of paper PMC10849652
The other results are listed elsewhere or left out.

Sequences of proteins named here, by UniProt entry; tags and fusion partners are left off. A change or cut given only in a name is not applied to a line headed by its entry.
UniProt P08621, whole entry, looked up: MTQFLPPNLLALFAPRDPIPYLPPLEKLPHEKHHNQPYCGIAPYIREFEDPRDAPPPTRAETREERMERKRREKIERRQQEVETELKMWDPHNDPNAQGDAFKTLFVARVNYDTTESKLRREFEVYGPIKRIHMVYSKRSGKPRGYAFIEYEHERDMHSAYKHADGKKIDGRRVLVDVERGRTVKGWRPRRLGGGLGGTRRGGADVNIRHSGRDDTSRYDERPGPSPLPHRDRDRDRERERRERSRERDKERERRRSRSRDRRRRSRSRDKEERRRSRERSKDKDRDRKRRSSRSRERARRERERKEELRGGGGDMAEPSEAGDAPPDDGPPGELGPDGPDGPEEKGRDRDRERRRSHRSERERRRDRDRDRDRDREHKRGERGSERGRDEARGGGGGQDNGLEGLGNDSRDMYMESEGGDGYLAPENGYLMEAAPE
UniProt Q9H2G2: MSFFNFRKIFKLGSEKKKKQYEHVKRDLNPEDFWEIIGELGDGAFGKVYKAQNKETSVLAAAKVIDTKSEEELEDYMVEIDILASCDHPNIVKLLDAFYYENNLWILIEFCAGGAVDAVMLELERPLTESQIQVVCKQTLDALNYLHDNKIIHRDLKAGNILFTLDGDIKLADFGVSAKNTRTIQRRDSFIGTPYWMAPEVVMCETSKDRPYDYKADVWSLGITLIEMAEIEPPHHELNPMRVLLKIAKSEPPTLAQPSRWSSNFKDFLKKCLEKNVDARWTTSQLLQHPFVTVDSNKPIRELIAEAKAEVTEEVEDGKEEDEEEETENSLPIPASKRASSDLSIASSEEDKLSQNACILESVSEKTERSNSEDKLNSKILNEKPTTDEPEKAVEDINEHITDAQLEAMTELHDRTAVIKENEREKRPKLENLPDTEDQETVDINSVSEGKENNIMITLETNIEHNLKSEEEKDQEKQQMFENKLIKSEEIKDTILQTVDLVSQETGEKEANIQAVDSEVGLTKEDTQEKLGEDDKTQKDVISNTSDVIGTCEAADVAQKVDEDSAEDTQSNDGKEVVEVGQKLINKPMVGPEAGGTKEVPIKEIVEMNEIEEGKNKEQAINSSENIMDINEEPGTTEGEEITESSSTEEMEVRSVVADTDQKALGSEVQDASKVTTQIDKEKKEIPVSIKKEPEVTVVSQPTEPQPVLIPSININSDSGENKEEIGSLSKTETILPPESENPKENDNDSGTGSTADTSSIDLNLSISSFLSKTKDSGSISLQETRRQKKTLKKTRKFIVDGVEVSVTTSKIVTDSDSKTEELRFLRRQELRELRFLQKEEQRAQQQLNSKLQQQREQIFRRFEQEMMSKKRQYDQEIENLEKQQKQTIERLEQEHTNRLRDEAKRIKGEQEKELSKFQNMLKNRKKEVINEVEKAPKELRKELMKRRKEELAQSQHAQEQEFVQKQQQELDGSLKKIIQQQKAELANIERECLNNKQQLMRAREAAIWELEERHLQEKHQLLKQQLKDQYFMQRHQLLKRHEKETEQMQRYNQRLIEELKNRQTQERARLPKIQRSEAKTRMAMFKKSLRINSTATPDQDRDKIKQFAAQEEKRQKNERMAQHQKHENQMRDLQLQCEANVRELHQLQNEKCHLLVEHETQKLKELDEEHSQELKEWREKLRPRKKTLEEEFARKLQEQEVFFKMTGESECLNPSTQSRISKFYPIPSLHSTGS
UniProt A6NHR9: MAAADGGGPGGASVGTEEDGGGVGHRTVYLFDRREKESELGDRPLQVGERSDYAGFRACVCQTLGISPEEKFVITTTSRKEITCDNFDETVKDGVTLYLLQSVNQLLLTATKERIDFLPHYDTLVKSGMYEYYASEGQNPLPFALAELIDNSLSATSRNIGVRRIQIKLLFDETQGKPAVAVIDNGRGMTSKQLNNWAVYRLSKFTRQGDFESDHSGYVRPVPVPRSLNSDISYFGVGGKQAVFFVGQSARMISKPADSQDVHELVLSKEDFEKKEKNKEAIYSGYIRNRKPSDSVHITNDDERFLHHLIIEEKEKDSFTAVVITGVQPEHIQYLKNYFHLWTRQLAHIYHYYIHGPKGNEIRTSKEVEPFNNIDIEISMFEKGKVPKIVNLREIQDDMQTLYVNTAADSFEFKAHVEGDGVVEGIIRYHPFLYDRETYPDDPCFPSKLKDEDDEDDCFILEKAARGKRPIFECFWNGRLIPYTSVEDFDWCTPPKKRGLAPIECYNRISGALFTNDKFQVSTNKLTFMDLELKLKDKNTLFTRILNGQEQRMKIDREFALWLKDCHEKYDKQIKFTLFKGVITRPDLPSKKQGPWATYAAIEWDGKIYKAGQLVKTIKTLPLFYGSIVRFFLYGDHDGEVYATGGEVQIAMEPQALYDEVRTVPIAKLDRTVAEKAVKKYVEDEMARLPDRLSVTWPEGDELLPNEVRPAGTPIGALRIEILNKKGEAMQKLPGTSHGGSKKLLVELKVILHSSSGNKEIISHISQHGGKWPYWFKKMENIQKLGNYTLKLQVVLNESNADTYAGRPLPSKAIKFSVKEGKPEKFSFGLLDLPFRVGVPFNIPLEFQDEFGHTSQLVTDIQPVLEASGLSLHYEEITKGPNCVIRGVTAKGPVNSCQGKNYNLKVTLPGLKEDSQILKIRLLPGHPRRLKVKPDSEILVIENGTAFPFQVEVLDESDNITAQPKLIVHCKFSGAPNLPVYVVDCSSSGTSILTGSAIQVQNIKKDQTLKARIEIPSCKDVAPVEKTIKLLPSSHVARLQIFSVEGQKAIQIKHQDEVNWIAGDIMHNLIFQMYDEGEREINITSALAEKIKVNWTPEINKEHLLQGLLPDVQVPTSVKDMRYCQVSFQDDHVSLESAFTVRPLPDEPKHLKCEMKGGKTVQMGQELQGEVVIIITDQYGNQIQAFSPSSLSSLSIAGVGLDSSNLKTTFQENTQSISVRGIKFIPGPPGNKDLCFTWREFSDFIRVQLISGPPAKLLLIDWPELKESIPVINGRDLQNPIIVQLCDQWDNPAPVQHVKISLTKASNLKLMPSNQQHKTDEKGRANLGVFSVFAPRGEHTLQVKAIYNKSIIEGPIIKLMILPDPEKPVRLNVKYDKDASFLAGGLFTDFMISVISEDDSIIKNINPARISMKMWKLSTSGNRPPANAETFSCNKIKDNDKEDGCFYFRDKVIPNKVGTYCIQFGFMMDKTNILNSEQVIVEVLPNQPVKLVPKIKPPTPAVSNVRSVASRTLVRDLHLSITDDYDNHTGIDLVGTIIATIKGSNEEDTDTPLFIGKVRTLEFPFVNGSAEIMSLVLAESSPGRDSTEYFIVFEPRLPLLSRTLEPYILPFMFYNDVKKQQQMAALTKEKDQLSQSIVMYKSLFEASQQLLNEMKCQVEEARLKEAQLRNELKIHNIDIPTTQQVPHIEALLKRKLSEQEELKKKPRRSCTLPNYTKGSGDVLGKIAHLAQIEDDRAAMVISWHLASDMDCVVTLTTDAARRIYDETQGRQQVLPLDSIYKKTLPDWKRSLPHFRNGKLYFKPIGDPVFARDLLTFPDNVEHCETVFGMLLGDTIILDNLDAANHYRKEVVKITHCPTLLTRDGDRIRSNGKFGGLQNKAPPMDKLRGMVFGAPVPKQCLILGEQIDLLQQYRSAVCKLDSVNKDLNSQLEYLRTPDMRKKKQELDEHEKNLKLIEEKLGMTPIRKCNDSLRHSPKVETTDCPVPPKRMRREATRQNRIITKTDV
UniProt Q9Y5X3: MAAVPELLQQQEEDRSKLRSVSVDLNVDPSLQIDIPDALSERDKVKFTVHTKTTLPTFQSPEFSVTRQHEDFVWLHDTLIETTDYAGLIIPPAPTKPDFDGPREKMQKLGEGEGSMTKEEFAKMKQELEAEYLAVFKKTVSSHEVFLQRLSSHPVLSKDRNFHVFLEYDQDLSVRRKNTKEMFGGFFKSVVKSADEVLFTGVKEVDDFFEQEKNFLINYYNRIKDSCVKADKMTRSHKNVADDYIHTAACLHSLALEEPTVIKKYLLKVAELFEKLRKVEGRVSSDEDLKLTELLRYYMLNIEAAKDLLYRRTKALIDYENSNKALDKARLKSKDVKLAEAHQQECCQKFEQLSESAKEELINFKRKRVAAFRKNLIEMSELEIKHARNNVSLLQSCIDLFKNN
UniProt Q9UPR3: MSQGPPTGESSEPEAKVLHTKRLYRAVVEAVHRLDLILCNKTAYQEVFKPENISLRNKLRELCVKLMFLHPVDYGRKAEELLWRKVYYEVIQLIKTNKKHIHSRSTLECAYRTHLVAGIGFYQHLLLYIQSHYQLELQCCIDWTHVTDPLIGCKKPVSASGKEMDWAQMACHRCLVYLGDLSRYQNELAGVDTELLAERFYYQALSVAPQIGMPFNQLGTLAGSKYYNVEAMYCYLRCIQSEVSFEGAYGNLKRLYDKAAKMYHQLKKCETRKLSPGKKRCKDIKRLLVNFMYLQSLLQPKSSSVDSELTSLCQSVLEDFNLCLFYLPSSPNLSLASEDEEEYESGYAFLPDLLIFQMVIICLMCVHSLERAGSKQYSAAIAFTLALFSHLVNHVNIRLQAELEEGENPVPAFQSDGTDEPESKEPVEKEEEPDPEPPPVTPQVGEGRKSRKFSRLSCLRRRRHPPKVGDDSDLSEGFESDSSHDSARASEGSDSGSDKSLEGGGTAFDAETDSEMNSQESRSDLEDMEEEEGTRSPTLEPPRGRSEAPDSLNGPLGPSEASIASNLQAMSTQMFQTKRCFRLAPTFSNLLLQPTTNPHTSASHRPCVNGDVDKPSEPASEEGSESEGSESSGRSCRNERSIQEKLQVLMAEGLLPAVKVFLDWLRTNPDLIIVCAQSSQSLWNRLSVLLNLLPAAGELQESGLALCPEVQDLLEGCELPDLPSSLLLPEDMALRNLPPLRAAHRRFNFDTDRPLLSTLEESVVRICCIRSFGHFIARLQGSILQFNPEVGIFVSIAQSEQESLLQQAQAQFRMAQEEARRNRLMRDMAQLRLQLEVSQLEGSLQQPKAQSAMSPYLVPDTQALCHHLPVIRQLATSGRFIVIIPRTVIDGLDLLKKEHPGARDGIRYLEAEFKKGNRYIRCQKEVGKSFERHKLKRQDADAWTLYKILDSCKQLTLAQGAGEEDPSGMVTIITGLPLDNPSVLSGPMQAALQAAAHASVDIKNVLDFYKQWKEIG
UniProt B2RUZ4: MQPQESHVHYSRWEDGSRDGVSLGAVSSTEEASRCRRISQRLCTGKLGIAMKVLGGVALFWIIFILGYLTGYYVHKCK
UniProt Q8WVK2: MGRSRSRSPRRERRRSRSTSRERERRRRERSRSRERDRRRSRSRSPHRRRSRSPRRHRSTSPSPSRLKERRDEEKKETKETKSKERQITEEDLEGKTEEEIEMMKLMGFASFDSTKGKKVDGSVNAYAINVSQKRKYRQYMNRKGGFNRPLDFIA
UniProt P08047, whole entry, looked up: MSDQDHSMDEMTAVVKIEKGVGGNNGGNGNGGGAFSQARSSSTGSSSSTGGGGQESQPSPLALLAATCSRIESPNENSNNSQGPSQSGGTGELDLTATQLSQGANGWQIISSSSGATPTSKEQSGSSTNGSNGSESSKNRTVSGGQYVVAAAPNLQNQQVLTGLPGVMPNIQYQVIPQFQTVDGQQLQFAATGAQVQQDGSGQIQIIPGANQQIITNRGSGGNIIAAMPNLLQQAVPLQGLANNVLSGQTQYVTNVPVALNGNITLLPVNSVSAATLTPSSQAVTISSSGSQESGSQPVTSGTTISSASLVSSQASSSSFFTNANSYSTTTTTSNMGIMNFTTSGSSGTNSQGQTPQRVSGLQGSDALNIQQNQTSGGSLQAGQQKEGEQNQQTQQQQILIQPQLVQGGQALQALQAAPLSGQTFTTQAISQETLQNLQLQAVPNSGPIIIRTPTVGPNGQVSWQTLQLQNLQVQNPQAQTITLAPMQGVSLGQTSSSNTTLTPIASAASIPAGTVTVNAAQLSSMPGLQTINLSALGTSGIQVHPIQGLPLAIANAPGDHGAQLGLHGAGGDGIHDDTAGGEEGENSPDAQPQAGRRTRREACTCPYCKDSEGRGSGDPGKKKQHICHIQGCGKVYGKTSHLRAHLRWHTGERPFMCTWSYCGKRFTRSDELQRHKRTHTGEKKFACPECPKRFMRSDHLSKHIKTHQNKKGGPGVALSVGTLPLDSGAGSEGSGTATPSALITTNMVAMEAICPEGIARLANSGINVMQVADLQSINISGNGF
UniProt Q9NRS6: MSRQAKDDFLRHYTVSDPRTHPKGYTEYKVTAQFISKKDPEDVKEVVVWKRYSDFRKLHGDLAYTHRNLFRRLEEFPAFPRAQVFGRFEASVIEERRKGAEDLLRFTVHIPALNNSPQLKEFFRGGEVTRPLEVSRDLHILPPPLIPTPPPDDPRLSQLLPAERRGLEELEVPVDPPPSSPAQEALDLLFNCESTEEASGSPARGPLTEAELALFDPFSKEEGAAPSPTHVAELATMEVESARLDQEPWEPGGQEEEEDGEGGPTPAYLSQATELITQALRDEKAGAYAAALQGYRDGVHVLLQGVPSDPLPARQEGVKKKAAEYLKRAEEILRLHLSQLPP

Experiments:
Assay in all cases: log2 fold change, soluble protein after heating vs DMSO (PISA); higher = thermal stabilisation; K562 cells, 10 uM, 30 min; active = over 0.2 and 3.5 SD of the protein, either way, in both replicates (recomputed)
[1] = compound: COC1=CC=C(C=C1)CN2C=CC3=C2C=C(C=C3)C(=O)NO
How it was run: (§1)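 Values are thermal stability changes relative to control samples and are taken from duplicates. They are stated as log2 fold changes. Before quantification by TMTpro 16plex LC-MS/MS with equalised channel sums, K562 cells at 2×10^6 cells/mL were treated with 10 μM compound for 30 min, heated in aliquots for 3 min across 48°C-58°C, pooled, extracted in PBS with 0.5% NP-40 at 4°C, and centrifuged at 21,000xg for 90 min to give the soluble supernatant.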

filanesib = compound: CON(C)C(=O)N1N=C(c2cc(F)ccc2F)S[C@@]1(CCCN)c1ccccc1 [filanesib]
How it was run: as §1

zotarolimus = compound: CO[C@H]1C[C@@H]2CC[C@@H](C)[C@@](O)(O2)C(=O)C(=O)N2CCCC[C@H]2C(=O)O[C@H]([C@H](C)C[C@@H]2CC[C@H](n3cnnn3)[C@H](OC)C2)CC(=O)[C@H](C)/C=C(\C)[C@@H](O)[C@@H](OC)C(=O)[C@H](C)C[C@H](C)/C=C/C=C/C=C/1C [zotarolimus]
How it was run: as §1

idasanutlin = compound: COc1cc(C(=O)O)ccc1NC(=O)[C@@H]1N[C@@H](CC(C)(C)C)[C@](C#N)(c2ccc(Cl)cc2F)[C@H]1c1cccc(Cl)c1F [idasanutlin]
How it was run: as §1

alisertib = compound: COc1cc(Nc2ncc3c(n2)-c2ccc(Cl)cc2C(c2c(F)cccc2OC)=NC3)ccc1C(=O)O [alisertib]
How it was run: as §1

[2] = compound: COc1cc2nc(-c3cc(F)ccc3O)nc(N[C@@H]3CNC[C@H]3C(C)(C)O)c2cc1OC
How it was run: as §1

gefitinib = compound: COc1cc2ncnc(Nc3ccc(F)c(Cl)c3)c2cc1OCCCN1CCOCC1 [gefitinib]
How it was run: as §1

[3] = compound: COc1cccc2cc(-c3nc([C@H]4CC[C@H](C(=O)O)CC4)n4ncnc(N)c34)[nH]c12
How it was run: as §1

lapatinib = compound: CS(=O)(=O)CCNCc1ccc(-c2ccc3ncnc(Nc4ccc(OCc5cccc(F)c5)c(Cl)c4)c3c2)o1 [lapatinib]
How it was run: as §1

pictilisib = compound: CS(=O)(=O)N1CCN(Cc2cc3nc(-c4cccc5[nH]ncc45)nc(N4CCOCC4)c3s2)CC1 [pictilisib]
How it was run: as §1

[4] = compound: CS(=O)(=O)c1ccc(-c2cnc(N)c(C(=O)Nc3ccccc3)n2)cc1
How it was run: as §1

crizotinib = compound: C[C@@H](Oc1cc(-c2cnn(C3CCNCC3)c2)cnc1N)c1c(Cl)ccc(F)c1Cl [crizotinib]
How it was run: as §1

[5] = compound: C[C@@H]1COCCN1C2=NC(=NC(=C2)C3(CC3)S(=O)(=O)C)C4=C5C=CNC5=CC=C4
How it was run: as §1

[6] = compound: C[C@H](C1=CC=C(C=C1)C(=O)NC2=C3C=CNC3=NC=C2)N
How it was run: as §1

gandotinib = compound: Cc1cc(Nc2cc(CN3CCOCC3)c3nc(C)c(Cc4ccc(Cl)cc4F)n3n2)n[nH]1 [gandotinib]
How it was run: as §1

[7] = compound: Cc1cc(SCc2sc(-c3ccc(C(F)(F)F)cc3)nc2C)ccc1OCC(=O)O
How it was run: as §1

doramapimod = compound: Cc1ccc(-n2nc(C(C)(C)C)cc2NC(=O)Nc2ccc(OCCN3CCOCC3)c3ccccc23)cc1 [doramapimod]
How it was run: as §1

ispinesib = compound: Cc1ccc(C(=O)N(CCCN)[C@@H](c2nc3cc(Cl)ccc3c(=O)n2Cc2ccccc2)C(C)C)cc1 [ispinesib]
How it was run: as §1

duvelisib = compound: C[C@H](Nc1ncnc2nc[nH]c12)c1cc2cccc(Cl)c2c(=O)n1-c1ccccc1 [duvelisib]
How it was run: as §1

tozasertib = compound: Cc1cc(Nc2cc(N3CCN(C)CC3)nc(Sc3ccc(NC(=O)C4CC4)cc3)n2)n[nH]1 [tozasertib]
How it was run: as §1

Measured: log2 fold change

SNRNP40 (UniProt Q96DI7)
inactive: [1] -0.039 | filanesib 0.08 | zotarolimus -0.015 | idasanutlin 0.007 | alisertib -0.054 | [2] 0.191 | gefitinib -0.052 | [3] 0.025 | lapatinib 0.02 | [4] 0.033 | crizotinib 0.116 | [5] 0.14 | [6] 0.023 | gandotinib 0.22 | [7] -0.059 | doramapimod 0.071 | ispinesib 0.077
active: pictilisib 0.295

SNRNP70 (UniProt P08621)
inactive: [1] -0.055 | filanesib 0.377 | zotarolimus -0.011 | idasanutlin 0.163 | alisertib -0.167 | [2] 0.16 | gefitinib -0.032 | [3] 0.005 | lapatinib 0.011 | pictilisib 0.05 | [4] -0.062 | crizotinib -0.057 | [5] -0.172 | [6] 0.204 | duvelisib -0.048 | gandotinib 0.073 | tozasertib -0.061 | [7] 0.026 | doramapimod 0.139 | ispinesib 0.103

SMU1 (UniProt Q2TAY7)
inactive: [1] 0.015 | filanesib 0.051 | zotarolimus 0.022 | idasanutlin -0.007 | alisertib -0.058 | [2] 0.004 | gefitinib -0.015 | [3] -0.027 | lapatinib 0.072 | pictilisib -0.004 | [4] -0.033 | crizotinib -0.008 | [5] 0.002 | [6] -0.029 | duvelisib -0.014 | gandotinib 0.041 | tozasertib -0.01 | [7] 0.02 | doramapimod -0.025 | ispinesib 0.04

SLK isoform 2 (UniProt Q9H2G2)
inactive: [1] 0.001 | filanesib 0.042 | zotarolimus -0.007 | idasanutlin -0.008 | alisertib -0.045 | [2] -0.103 | gefitinib 0.025 | [3] -0.079 | lapatinib -0.193 | [4] 0.016 | crizotinib -0.068 | [5] 0.07 | [6] 0.014 | gandotinib 0.102 | [7] 0.052 | doramapimod -0.118 | ispinesib 0.021
active: pictilisib 0.212

SOAT1 (UniProt P35610)
inactive: [1] 0 | filanesib -0.1 | idasanutlin -0.184 | alisertib -0.02 | [2] -0.118 | gefitinib 0.137 | [3] 0.045 | lapatinib 0.068 | pictilisib 0.067 | [4] 0.066 | crizotinib 0.139 | [5] 0.094 | [6] -0.018 | gandotinib 0.079 | [7] -0.026 | ispinesib 0.158
active: zotarolimus 0.363 | doramapimod 0.448

SMCHD1 (UniProt A6NHR9)
inactive: [1] 0.043 | filanesib 0.008 | zotarolimus 0.123 | idasanutlin 0.062 | alisertib -0.005 | [2] -0.179 | gefitinib -0.078 | [3] -0.096 | lapatinib 0.002 | pictilisib 0.035 | [4] -0.019 | crizotinib -0.065 | [5] -0.041 | [6] -0.104 | gandotinib 0.064 | [7] 0.104 | doramapimod 0.059 | ispinesib -0.149

SMPD4 isoform 4 (UniProt Q9NXE4)
inactive: [1] 0.051 | filanesib -0.223 | zotarolimus 0.011 | idasanutlin -0.049 | alisertib 0.145 | [2] -0.109 | gefitinib 0.02 | [3] -0.043 | lapatinib -0.013 | pictilisib -0.034 | [4] -0.026 | crizotinib -0.215 | [5] 0.005 | [6] 0.01 | gandotinib -0.133 | [7] 0.025 | doramapimod 0.002 | ispinesib -0.255

SNX2 (UniProt O60749)
inactive: [1] 0.011 | filanesib -0.156 | zotarolimus 0.037 | idasanutlin 0 | alisertib 0.013 | [2] -0.101 | gefitinib -0.105 | [3] 0.029 | lapatinib 0.001 | pictilisib -0.104 | [4] -0.034 | crizotinib -0.223 | [5] 0.006 | [6] -0.039 | gandotinib -0.216 | [7] 0.041 | doramapimod -0.014 | ispinesib -0.184

SLIRP (UniProt Q9GZT3)
inactive: [1] 0.088 | zotarolimus -0.054 | idasanutlin 0.041 | alisertib -0.08 | gefitinib 0.041 | [3] 0.023 | lapatinib -0.042 | pictilisib -0.15 | [4] -0.046 | crizotinib -0.267 | [5] -0.202 | [6] 0.058 | gandotinib 0.162 | [7] 0.146 | doramapimod -0.045 | ispinesib -0.149
active: filanesib -0.429 | [2] -0.648

SNX5 (UniProt Q9Y5X3)
inactive: [1] -0.06 | filanesib -0.172 | zotarolimus 0.015 | idasanutlin -0.015 | alisertib -0.012 | [2] -0.066 | gefitinib -0.136 | [3] 0.008 | lapatinib 0.01 | pictilisib -0.085 | [4] -0.075 | [5] 0.022 | [6] -0.014 | gandotinib -0.138 | [7] 0.036 | doramapimod -0.019 | ispinesib -0.236
active: crizotinib -0.32

SMG5 (UniProt Q9UPR3)
inactive: [1] -0.038 | filanesib 0.234 | zotarolimus 0.021 | idasanutlin 0.146 | alisertib 0.019 | [2] 0.028 | gefitinib -0.137 | [3] -0.085 | lapatinib 0.095 | [4] -0.091 | crizotinib -0.144 | [5] -0.06 | [6] 0.091 | duvelisib -0.051 | tozasertib 0.005 | [7] 0.106 | doramapimod 0.114 | ispinesib -0.076

SOX5 (UniProt P35711)
inactive: [1] -0.087 | filanesib -0.08 | zotarolimus -0.058 | idasanutlin 0.006 | alisertib -0.089 | [2] -0.055 | gefitinib -0.012 | [3] 0.105 | lapatinib 0.051 | [4] 0.07 | crizotinib 0.046 | [6] 0.041 | doramapimod 0.054 | ispinesib 0.004

SP3 (UniProt Q02447)
inactive: [1] -0.001 | filanesib -0.008 | zotarolimus -0.024 | idasanutlin 0.052 | alisertib -0.084 | [2] 0.037 | gefitinib -0.038 | [3] -0.04 | lapatinib 0.016 | pictilisib 0.041 | [4] -0.005 | crizotinib 0.013 | [5] -0.071 | [6] 0.123 | gandotinib 0.086 | [7] 0 | doramapimod 0.089 | ispinesib -0.046

2 successive entries already listed:
SNRNP40 (UniProt Q96DI7)
inactive: [1] -0.039 | filanesib 0.08 | zotarolimus -0.015 | idasanutlin 0.007 | alisertib -0.054 | [2] 0.191 | gefitinib -0.052 | [3] 0.025 | lapatinib 0.02 | [4] 0.033 | crizotinib 0.116 | [5] 0.14 | [6] 0.023 | gandotinib 0.22 | [7] -0.059 | doramapimod 0.071 | ispinesib 0.077
active: pictilisib 0.295

SNRNP70 (UniProt P08621)
inactive: [1] -0.055 | filanesib 0.377 | zotarolimus -0.011 | idasanutlin 0.163 | alisertib -0.167 | [2] 0.16 | gefitinib -0.032 | [3] 0.005 | lapatinib 0.011 | pictilisib 0.05 | [4] -0.062 | crizotinib -0.057 | [5] -0.172 | [6] 0.204 | duvelisib -0.048 | gandotinib 0.073 | tozasertib -0.061 | [7] 0.026 | doramapimod 0.139 | ispinesib 0.103

Continued.

SMIM1 (UniProt B2RUZ4)
inactive: [1] 0.115 | filanesib -0.073 | zotarolimus -0.049 | idasanutlin -0.111 | alisertib -0.021 | [2] -0.265 | gefitinib -0.149 | [3] 0.15 | lapatinib -0.049 | pictilisib 0.024 | [4] -0.068 | crizotinib -0.276 | [6] -0.226 | duvelisib -0.171 | gandotinib 0.07 | tozasertib 0.118 | [7] -0.122 | doramapimod -0.012

SNX1 (UniProt Q13596)
active: gandotinib -0.319
inactive: [1] -0.021 | filanesib -0.182 | zotarolimus 0.042 | idasanutlin -0.013 | alisertib -0.003 | [2] -0.063 | gefitinib -0.165 | [3] 0 | lapatinib -0.027 | pictilisib -0.205 | [4] -0.134 | crizotinib -0.247 | [5] 0.028 | [6] -0.025 | [7] 0.049 | doramapimod -0.009 | ispinesib -0.252

SNRNP27 (UniProt Q8WVK2)
inactive: [1] -0.075 | filanesib 0.03 | zotarolimus -0.156 | idasanutlin 0.121 | alisertib -0.003 | [2] -0.015 | gefitinib -0.011 | [3] 0.135 | lapatinib 0.005 | pictilisib -0.009 | [4] 0.002 | crizotinib 0.038 | [5] -0.069 | [6] 0.072 | gandotinib 0.013 | [7] -0.065 | doramapimod -0.056 | ispinesib -0.119

SP1 (UniProt P08047)
inactive: [1] -0.064 | filanesib 0.022 | zotarolimus -0.033 | idasanutlin -0.002 | alisertib -0.025 | [2] -0.007 | gefitinib -0.043 | [3] 0.005 | lapatinib -0.004 | pictilisib 0.142 | [4] 0.031 | crizotinib -0.038 | [5] -0.044 | [6] 0.042 | gandotinib 0.083 | [7] 0.023 | doramapimod 0.036 | ispinesib -0.113

SNX15 (UniProt Q9NRS6)
inactive: [1] -0.166 | filanesib 0.151 | zotarolimus -0.034 | idasanutlin 0.108 | alisertib -0.027 | [2] 0.019 | gefitinib 0.126 | [3] 0.032 | lapatinib -0.139 | pictilisib 0.018 | [4] 0.064 | crizotinib 0.002 | [6] 0.153 | gandotinib -0.061 | [7] -0.043 | doramapimod 0.136 | ispinesib -0.132
